Structures can show the parent of a compound that is named as a salt. This is one part of the list. Most values come without repeats; read them as rough.
Each compound was assayed on Drosophila melanogaster DPAGT1 (Alg7) RNAi eye model (assay: eye size Z-score vs DMSO-treated DPAGT1 model flies; higher = larger eye (suppression of DPAGT1 phenotype)). Details: 5 uM.

Row | Compound | eye size Z-score
1 | CC(=O)N(O)CCCCCNC(=O)CCC(=O)N(O)CCCCCNC(=O)CCC(=O)N(O)CCCCCN [Deferoxamine mesylate] | 0.52
2 | CC(C)/N=c1\cc2n(-c3ccc(Cl)cc3)c3ccccc3nc-2cc1Nc1ccc(Cl)cc1 [Clofazimine] | 0.96
3 | O=C1Cc2cc(CCN3CCN(c4nsc5ccccc45)CC3)c(Cl)cc2N1 [Ziprasidone  hydrochloride monohydrate] | 0.61
4 | CCCC(=O)N1CCCN(c2nc(N)c3cc(OC)c(OC)cc3n2)CC1 [Bunazosin hydrochloride] | -0.91
5 | CCN[C@H]1C[C@H](C)S(=O)(=O)c2sc(S(N)(=O)=O)cc21 [Dorzolamide hydrochloride] | 0.19
6 | CO[C@@]1(NC(=O)CSCC#N)C(=O)N2C(C(=O)O)=C(CSc3nnnn3C)CS[C@@H]21 [Cefmetazole sodium salt] | 0.16
7 | C[C@@H]1[C@H](O)[C@@H](C)/C=C/C=C/C=C/C=C/C=C/C=C/C=C/[C@H](O[C@@H]2O[C@H](C)[C@@H](O)[C@H](N)[C@@H]2O)C[C@@H]2O[C@](O)(C[C@@H](O)C[C@@H](O)[C@H](O)CC[C@@H](O)C[C@@H](O)CC(=O)O[C@H]1C)C[C@H](O)[C@H]2C(=O)O [Amphotericin B] | -0.71
8 | CCOC(=O)C(C)(C)Oc1ccc(Cl)cc1 [Clofibrate] | 0.23
9 | CC(C)NC[C@H](O)COc1ccc(CC(N)=O)cc1 [(S,-) Atenolol] | -0.15
10 | CCC(NC(C)C)C(O)c1ccc(O)c(O)c1 (stereo not drawn) [Isoetharine mesylate salt] | 0.47
11 | CCC(Cc1c(I)cc(I)c(N)c1I)C(=O)O (stereo not drawn) [Iopanoic acid] | 0.4
12 | CN1CCc2cccc3c2[C@H]1Cc1ccc(O)c(O)c1-3 [R(-) Apomorphine hydrochloride hemihydrate] | -0.44
13 | CN1CCN(C2=Nc3cc(Cl)ccc3Nc3ccccc32)CC1 [Clozapine] | -1.11
14 | Cc1ccc(-c2ncc(Cl)cc2-c2ccc(S(C)(=O)=O)cc2)cn1 [Etoricoxib] | -1.09
15 | CC1CCc2c(N3CCC(O)CC3)c(F)cc3c(=O)c(C(=O)O)cn1c23 (stereo not drawn) [Nadifloxacin] | 0.19
16 | Cc1cc(=O)n(-c2ccccc2)n1C [Antipyrine] | 1.62
17 | Clc1ccc(COC(Cn2ccnc2)c2ccc(Cl)cc2Cl)c(Cl)c1 (stereo not drawn) [Miconazole] | -0.97
18 | NC12CC3CC(CC(C3)C1)C2 [Adamantamine fumarate] | 1.31
19 | CN[C@H](CC(C)C)C(=O)N[C@H]1C(=O)N[C@@H](CC(N)=O)C(=O)N[C@H]2C(=O)N[C@H]3C(=O)N[C@H](C(=O)N[C@H](C(=O)O)c4cc(O)cc(O)c4-c4cc3ccc4O)[C@H](O)c3ccc(c(Cl)c3)Oc3cc2cc(c3O[C@@H]2O[C@H](CO)[C@@H](O)[C@H](O)[C@H]2O[C@H]2C[C@](C)(N)[C@H](O)[C@H](C)O2)Oc2ccc(cc2Cl)[C@H]1O [Vancomycin hydrochloride] | 0.92
20 | O=C(CCCl)NCc1ccccc1 [Beclamide] | 0.44
21 | CNS(=O)(=O)Cc1ccc2[nH]cc(CCN(C)C)c2c1 [Sumatriptan succinate] | -0.24
22 | NC(=O)c1ncn([C@@H]2O[C@H](CO)[C@@H](O)[C@H]2O)n1 [Ribavirin] | -0.94

Exported with each value named: 2 of the compounds above.
Cc1ccc(-c2ncc(Cl)cc2-c2ccc(S(C)(=O)=O)cc2)cn1 [Etoricoxib]
  eye size Z-score: -1.09
CC1CCc2c(N3CCC(O)CC3)c(F)cc3c(=O)c(C(=O)O)cn1c23 (stereo not drawn) [Nadifloxacin]
  eye size Z-score: 0.19

Following part.

Row | Compound | eye size Z-score
23 | CCOC(=O)[C@H](CCc1ccccc1)N[C@@H](C)C(=O)N1[C@H](C(=O)O)C[C@@H]2CCC[C@@H]21 [Ramipril] | -0.11
24 | CCOc1ccc2c(c1)C(C)=CC(C)(C)N2 [Ethoxyquin] | 0.17
25 | CC(C)COCC(CN(Cc1ccccc1)c1ccccc1)N1CCCC1 (stereo not drawn) [Bepridil hydrochloride] | -0.08
26 | O=C(O)c1cc(=O)c2ccccc2o1 [Chromocarb] | 1.01
27 | NS(=O)(=O)c1cc(C(=O)O)c(NCc2ccco2)cc1Cl [Furosemide] | -0.13
28 | Cc1cc(C2CCCCC2)n(O)c(=O)c1 [Ciclopirox ethanolamine] | 1.09
29 | COc1cc(C(=O)NS(=O)(=O)c2ccccc2C)ccc1Cc1cn(C)c2ccc(NC(=O)OC3CCCC3)cc12 [Zafirlukast] | 0.18
30 | O=C1NCN(c2ccccc2)C12CCN(CCCC(c1ccc(F)cc1)c1ccc(F)cc1)CC2 [Fluspirilene] | -1.02
31 | CC(C)(C)C(=O)OCOC(=O)[C@@H]1N2C(=O)[C@@H](NC(=O)[C@H](N)c3ccccc3)[C@H]2SC1(C)C [Pivampicillin] | -0.02
32 | CN(C)C(=O)COC(=O)Cc1ccc(OC(=O)c2ccc(NC(=N)N)cc2)cc1 [Camostat mesylate] | 1.41
33 | N=C(N)NC(=O)c1nc(Cl)c(N)nc1N [Amiloride hydrochloride dihydrate] | 0.79
34 | CCCCOC(=O)c1ccc(N)cc1 [Butamben] | 0.1
35 | N[C@@H]1CCCCN(c2c(F)cc3c(=O)c(C(=O)O)cn(C4CC4)c3c2Cl)C1 [Besifloxacin hydrochloride] | 0
36 | CCOc1ccccc1OCC1CNCCO1 (stereo not drawn) [Viloxazine hydrochloride] | -0.31
37 | CC[C@H]1OC(=O)[C@H](C)[C@@H](O[C@H]2C[C@@](C)(OC)[C@@H](O)[C@H](C)O2)[C@H](C)[C@@H](O[C@@H]2O[C@H](C)C[C@H](N(C)C)[C@H]2O)[C@](C)(OC)C[C@@H](C)C(=O)[C@H](C)[C@@H](O)[C@]1(C)O [Clarithromycin] | 0.03
38 | NC(=O)Cc1cccc(C(=O)c2ccccc2)c1N [Nepafenac] | -0.1
39 | CC(C)COC(=O)OCN1C(=O)CN(CCN2CC(=O)N(COC(=O)OCC(C)C)C(=O)C2)CC1=O [Sobuzoxane] | -1
40 | COCC1=C(C(=O)OC(C)OC(=O)OC(C)C)N2C(=O)[C@@H](NC(=O)/C(=N\OC)c3csc(N)n3)[C@H]2SC1 (stereo partly drawn) [Cefpodoxime proxetil] | 0.35
41 | CCN(CC)CCOC(=O)C(c1ccccc1)C1CCCCC1 (stereo not drawn) [Drofenine hydrochloride] | 0.59
42 | COc1cc(Cc2cnc(N)nc2N)cc(OC)c1OC [Trimethoprim] | 0.4
43 | CC(C(=O)O)c1ccc(N2CC=CC2)c(Cl)c1 (stereo not drawn) [Pirprofen] | 0.06

From the supplement of paper PMC11542785
